Patent US7211424B1, “Mammalian Subtilisin/kexin isozyme SKI-1: a proprotein convertase with a unique cleavage specificity” (Institut de Recherches Cliniques de Montreal, priority 1999, dated 2007)
Part of at least one peptide drawing is inferred or uncertain, most often the ends. Some compounds share one wording; it may come from a single statement. Where a SMILES comes first, the peptide text is derived from it. Where no end group is shown, it is not given here. [ ]: non-standard residue; d: D form. Tyr(3-NO2) = N[C@@H](Cc1ccc(O)c([N+](=O)[O-])c1)C(=O)O; 2Abz = Nc1ccccc1C(=O)O

Experiments:
Type in all cases: biochemical
[1] = biological target: T1, SKI-1 (Homo sapiens, UniProt Q14703); assay: Example 6: synthetic peptides examined as possible substrates of recombinant SKI-1; set-up: made in house
T1 sequence (Q14703 187-1052): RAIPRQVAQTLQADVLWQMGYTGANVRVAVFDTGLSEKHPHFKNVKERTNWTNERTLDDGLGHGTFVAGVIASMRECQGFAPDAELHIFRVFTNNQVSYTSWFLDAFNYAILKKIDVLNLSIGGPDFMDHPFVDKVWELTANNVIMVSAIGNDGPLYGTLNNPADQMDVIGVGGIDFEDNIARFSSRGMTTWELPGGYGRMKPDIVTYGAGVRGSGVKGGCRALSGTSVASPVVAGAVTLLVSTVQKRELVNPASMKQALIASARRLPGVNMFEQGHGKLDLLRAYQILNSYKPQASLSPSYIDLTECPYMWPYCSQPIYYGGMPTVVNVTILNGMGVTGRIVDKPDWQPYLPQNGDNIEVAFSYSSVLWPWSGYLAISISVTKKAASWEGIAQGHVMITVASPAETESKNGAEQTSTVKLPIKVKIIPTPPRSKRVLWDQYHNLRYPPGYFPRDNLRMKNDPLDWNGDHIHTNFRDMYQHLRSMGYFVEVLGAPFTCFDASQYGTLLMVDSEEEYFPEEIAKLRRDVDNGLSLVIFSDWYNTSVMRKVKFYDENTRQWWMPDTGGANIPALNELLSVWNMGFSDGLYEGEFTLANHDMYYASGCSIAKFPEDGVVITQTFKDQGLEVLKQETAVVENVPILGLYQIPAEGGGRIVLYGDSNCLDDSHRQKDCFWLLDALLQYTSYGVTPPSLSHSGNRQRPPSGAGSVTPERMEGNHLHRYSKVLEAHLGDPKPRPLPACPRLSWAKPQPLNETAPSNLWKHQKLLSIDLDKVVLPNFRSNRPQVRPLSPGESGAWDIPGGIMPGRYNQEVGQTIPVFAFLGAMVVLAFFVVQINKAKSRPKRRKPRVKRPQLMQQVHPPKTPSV
From the text: A large number of synthetic peptides based on potential cleavage sites in the hSKI-1 prodomain, proBDNF and the loop region of SREBP-2 were synthesized.
These peptides were examined as possible substrates of SKI-1.

[2] = biological target: T2, shed-hSKI-1 (Homo sapiens, UniProt Q14703); assay: Hydrolysis of quenched fluorogenic substrates by shed-hSKI-1; settings: relative to peptide IV
T2 construct: SKI-1 is further processed to remove the transmembrane domain that keeps it integrated in the ER membrane, which generates a SKI-1 soluble form; made in house; host or cells: HK293 cells stably transfected with full-length hSKI-1 in pcDNA3; shed enzyme in the medium
T2 sequence (Q14703 187-998 limits assumed): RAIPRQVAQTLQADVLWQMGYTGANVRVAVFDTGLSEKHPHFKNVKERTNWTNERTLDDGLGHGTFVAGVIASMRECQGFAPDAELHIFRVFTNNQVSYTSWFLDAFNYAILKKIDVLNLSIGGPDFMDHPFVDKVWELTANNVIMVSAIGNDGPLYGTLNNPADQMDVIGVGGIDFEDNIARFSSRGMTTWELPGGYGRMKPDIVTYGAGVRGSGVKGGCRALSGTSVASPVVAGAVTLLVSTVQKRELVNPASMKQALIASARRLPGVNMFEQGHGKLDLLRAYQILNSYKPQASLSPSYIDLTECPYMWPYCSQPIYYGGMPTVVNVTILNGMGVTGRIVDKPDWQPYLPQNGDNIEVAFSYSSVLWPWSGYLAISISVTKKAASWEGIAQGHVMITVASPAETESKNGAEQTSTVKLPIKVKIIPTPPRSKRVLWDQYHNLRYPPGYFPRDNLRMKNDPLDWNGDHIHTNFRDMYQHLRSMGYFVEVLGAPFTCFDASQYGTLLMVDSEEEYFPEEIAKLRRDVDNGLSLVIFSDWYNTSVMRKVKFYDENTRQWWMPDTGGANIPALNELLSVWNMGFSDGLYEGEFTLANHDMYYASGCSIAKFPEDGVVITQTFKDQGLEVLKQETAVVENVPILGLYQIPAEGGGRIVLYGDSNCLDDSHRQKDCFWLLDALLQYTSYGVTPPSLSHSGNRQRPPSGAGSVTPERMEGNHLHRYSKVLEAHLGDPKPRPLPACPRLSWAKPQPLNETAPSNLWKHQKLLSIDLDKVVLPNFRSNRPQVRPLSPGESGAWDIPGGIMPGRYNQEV
Experimental: For digestions, each peptide was typically reacted at 37° C. with 10 μl of the concentrated enzyme preparation in a buffer consisting of 50 mM HEPES (N-2-Hydroxyethyl piperazine-N′-2 EthaneSulfonic acid) (ICN Biomedicals Inc), 50 mM MES (2-[N-Morpholino] EthaneSulfonic acid) (Sigma Chem Co.), and 3 mM Ca^2+-acetate (pH 6.5). The digestion products were separated by RP-HPLC on a Beckman 5 μm Ultrasphere C18 column (0.2×25 cm) and eluted with a 1%/min linear gradient of aqueous 0.1% TFA/CH3CN ([…]) at a flow rate of 1 ml/min. The collected peptides were characterized by mass spectrometry and amino acid composition, which was also used to quantitate the amount of various substrates and products. The digestions of the quenched fluorogenic peptides were analyzed by RP-HPLC using a dual UV (210 nm) and fluorescence (excitation and emission wavelengths of 320 and 420 nm, respectively) detector (Rainin).
Km(app), Vmax(app) and Ki(app) determinations—Following digestion reactions with increasing substrate concentrations, the products were separated by RP-HPLC. The rate of substrate hydrolysis was obtained from the integrated peak areas of the chromatograms. […] For the two quenched peptides, kinetic parameters were determined as described (17).

[3] = biological target: T1, SKI-1; assay: Example 6: internally quenched fluorogenic peptides tested as substrates for SKI-1; set-up: made in house; settings: relative to peptide (b)

Compound | cleavage by the recombinant SKI-1 [1] | better substrate than the C-terminal prosegment peptide IV [2] | Vmax/Km, more efficient than the nearest candidate quenched peptide (b) [3] [fold]
KAGSRGLTSLADTF [I] | efficiently cleaved |  | 
CC(C)C[C@H](NC(=O)[C@H](CO)NC(=O)[C@H](CCCNC(=N)N)NC(=O)c1ccccc1N)C(=O)N[C@@H](CCCCN)C(=O)N[C@@H](Cc1ccc(O)cc1)C(=O)N[C@@H](C)C(=O)N[C@@H](CCC(=O)O)C(=O)N[C@@H](CO)C(=O)N[C@@H](CC(=O)O)C(=O)N[C@@H](Cc1ccc(O)c([N+](=O)[O-])c1)C(=O)N[C@@H](C)C(N)=O [XI] (H-[2Abz]RSLKYAESD[Tyr(3-NO2)]A-NH2) |  | ~16 fold | 
GGAHDSDQHPHSGSGRSVLSFESGSGG [II] | efficiently cleaved |  | 
CC(C)C[C@H](NC(=O)[C@H](CO)NC(=O)[C@H](CCCNC(=N)N)NC(=O)[C@H](Cc1ccccc1)NC(=O)[C@@H](NC(=O)c1ccccc1N)C(C)C)C(=O)N[C@@H](CCCCN)C(=O)N[C@@H](Cc1ccc(O)cc1)C(=O)N[C@@H](C)C(=O)N[C@@H](CCC(=O)O)C(=O)N[C@@H](CO)C(=O)N[C@@H](CC(=O)O)C(=O)N[C@@H](Cc1ccc(O)c([N+](=O)[O-])c1)C(=O)N[C@@H](C)C(N)=O [X] (H-[2Abz]VFRSLKYAESD[Tyr(3-NO2)]A-NH2) |  | about 3 fold | 6
WHATGRHSSRRLLRALE-NH2 [IV] | efficiently cleaved |  | 
